# Results published in publication PMC3157345.
# No constants are given. Whether binding was seen depends on the method and setting. Binding seen in cells or lysates may run through a third protein. Here binding means that the protein was enriched with, or labelled near, the bait; the list need not be complete.
# B1: ATP5O/OSCP (protein, UniProt P48047 24-213)
# chain: FAKLVRPPVQVYGIEGRYATALYSAASKQNKLEQVEKELLRVAQILKEPKVAASVLNPYVKRSIKVKSLNDITAKERFSPLTTNLINLLAENGRLSNTQGVVSAFSTMMSVHRGEVPCTVTSASPLEEATLSELKTVLKSFLSQGQVLKLEAKTDPSILGGMIVRIGEKYVDMSVKTKIQKLGRAMREIV
# B2: HSDL2 (protein, UniProt Q6YN16 1-418)
# chain: MLPNTGRLAGCTVFITGASRGIGKAIALKAAKDGANIVIAAKTAQPHPKLLGTIYTAAEEIEAVGGKALPCIVDVRDEQQISAAVEKAIKKFGGIDILVNNASAISLTNTLDTPTKRLDLMMNVNTRGTYLASKACIPYLKKSKVAHILNISPPLNLNPVWFKQHCAYTIAKYGMSMYVLGMAEEFKGEIAVNALWPKTAIHTAAMDMLGGPGIESQCRKVDIIADAAYSIFQKPKSFTGNFVIDENILKEEGIENFDVYAIKPGHPLQPDFFLDEYPEAVSKKVESTGAVPEFKEEKLQLQPKPRSGAVEETFRIVKDSLSDDVVKATQAIYLFELSGEDGGTWFLDLKSKGGNVGYGEPSDQADVVMSMTTDDFVKMFSGKLKPTMAFMSGKLKIKGNMALAIKLEKLMNQMNARL
# B3: SLC16A1 (protein, UniProt P53985 1-500)
# chain: MPPAVGGPVGYTPPDGGWGWAVVIGAFISIGFSYAFPKSITVFFKEIEGIFHATTSEVSWISSIMLAVMYGGGPISSILVNKYGSRIVMIVGGCLSGCGLIAASFCNTVQQLYVCIGVIGGLGLAFNLNPALTMIGKYFYKRRPLANGLAMAGSPVFLCTLAPLNQVFFGIFGWRGSFLILGGLLLNCCVAGALMRPIGPKPTKAGKDKSKASLEKAGKSGVKKDLHDANTDLIGRHPKQEKRSVFQTINQFLDLTLFTHRGFLLYLSGNVIMFFGLFAPLVFLSSYGKSQHYSSEKSAFLLSILAFVDMVARPSMGLVANTKPIRPRIQYFFAASVVANGVCHMLAPLSTTYVGFCVYAGFFGFAFGWLSSVLFETLMDLVGPQRFSSAVGLVTIVECCPVLLGPPLLGRLNDMYGDYKYTYWACGVVLIISGIYLFIGMGINYRLLAKEQKANEQKKESKEEETSIDVAGKPNEVTKAAESPDQKDTDGGPKEEESPV
# B4: SDHB subunit of complex II (succinate dehydrogenase) (protein, UniProt P21912 29-280)
# chain: AQTAAATAPRIKKFAIYRWDPDKAGDKPHMQTYEVDLNKCGPMVLDALIKIKNEVDSTLTFRRSCREGICGSCAMNINGGNTLACTRRIDTNLNKVSKIYPLPHMYVIKDLVPDLSNFYAQYKSIEPYLKKKDESQEGKQQYLQSIEEREKLDGLYECILCACCSTSCPSYWWNGDKYLGPAVLMQAYRWMIDSRDDFTEERLAKLQDPFSLYRCHTIMNCTRTCPKGLNPGKAIAEIKKMMATYKEKKASV
# B5: ATP5F1 (protein, UniProt P24539 43-256)
# chain: PVPPLPEYGGKVRYGLIPEEFFQFLYPKTGVTGPYVLGTGLILYALSKEIYVISAETFTALSVLGVMVYGIKKYGPFVADFADKLNEQKLAQLEEAKQASIQHIQNAIDTEKSQQALVQKRHYLFDVQRNNIAMALEVTYRERLYRVYKEVKNRLDYHISVQNMMRRKEQEHMINWVEKHVVQSISTQQEKETIAKCIADLKLLAKKAQAQPVM
# Molecular target: SIRT3-FLAG
# Experiment: affinity purification with mass spectrometry; FLAG-IPs from HEK293T cells expressing empty vector or SIRT3-FLAG, eluted with FLAG peptides, LC-MS/MS; two independent experiments
row,Binder,binding
1,B1,binds
2,B2,binds
3,B3,binds
4,B4,binds
5,B5,binds
